The chains are these.
B1: Cbf5, a component of telomere synthase H/ACA ribonucleoprotein (RNP) (protein, UniProt O60832 1-514)
chain: MADAEVIILPKKHKKKKERKSLPEEDVAEIQHAEEFLIKPESKVAKLDTSQWPLLLKNFDKLNVRTTHYTPLACGSNPLKREIGDYIRTGFINLDKPSNPSSHEVVAWIRRILRVEKTGHSGTLDPKVTGCLIVCIERATRLVKSQQSAGKEYVGIVRLHNAIEGGTQLSRALETLTGALFQRPPLIAAVKRQLRVRTIYESKMIEYDPERRLGIFWVSCEAGTYIRTLCVHLGLLLGVGGQMQELRRVRSGVMSEKDHMVTMHDVLDAQWLYDNHKDESYLRRVVYPLEKLLTSHKRLVMKDSAVNAICYGAKIMLPGVLRYEDGIEVNQEIVVITTKGEAICMAIALMTTAVISTCDHGIVAKIKRVIMERDTYPRKWGLGPKASQKKLMIKQGLLDKHGKPTDSTPATWKQEYVDYSESAKKEVVAEVVKAPQVVAEAAKTAKRKRESESESDETPPAAPQLIKKEKKKSKKDKKAKAGLESGAEPGDGDSDTTKKKKKKKKAKEVELVSE

Sequences of proteins named here, by UniProt entry; tags and fusion partners are left off.
UniProt O14746: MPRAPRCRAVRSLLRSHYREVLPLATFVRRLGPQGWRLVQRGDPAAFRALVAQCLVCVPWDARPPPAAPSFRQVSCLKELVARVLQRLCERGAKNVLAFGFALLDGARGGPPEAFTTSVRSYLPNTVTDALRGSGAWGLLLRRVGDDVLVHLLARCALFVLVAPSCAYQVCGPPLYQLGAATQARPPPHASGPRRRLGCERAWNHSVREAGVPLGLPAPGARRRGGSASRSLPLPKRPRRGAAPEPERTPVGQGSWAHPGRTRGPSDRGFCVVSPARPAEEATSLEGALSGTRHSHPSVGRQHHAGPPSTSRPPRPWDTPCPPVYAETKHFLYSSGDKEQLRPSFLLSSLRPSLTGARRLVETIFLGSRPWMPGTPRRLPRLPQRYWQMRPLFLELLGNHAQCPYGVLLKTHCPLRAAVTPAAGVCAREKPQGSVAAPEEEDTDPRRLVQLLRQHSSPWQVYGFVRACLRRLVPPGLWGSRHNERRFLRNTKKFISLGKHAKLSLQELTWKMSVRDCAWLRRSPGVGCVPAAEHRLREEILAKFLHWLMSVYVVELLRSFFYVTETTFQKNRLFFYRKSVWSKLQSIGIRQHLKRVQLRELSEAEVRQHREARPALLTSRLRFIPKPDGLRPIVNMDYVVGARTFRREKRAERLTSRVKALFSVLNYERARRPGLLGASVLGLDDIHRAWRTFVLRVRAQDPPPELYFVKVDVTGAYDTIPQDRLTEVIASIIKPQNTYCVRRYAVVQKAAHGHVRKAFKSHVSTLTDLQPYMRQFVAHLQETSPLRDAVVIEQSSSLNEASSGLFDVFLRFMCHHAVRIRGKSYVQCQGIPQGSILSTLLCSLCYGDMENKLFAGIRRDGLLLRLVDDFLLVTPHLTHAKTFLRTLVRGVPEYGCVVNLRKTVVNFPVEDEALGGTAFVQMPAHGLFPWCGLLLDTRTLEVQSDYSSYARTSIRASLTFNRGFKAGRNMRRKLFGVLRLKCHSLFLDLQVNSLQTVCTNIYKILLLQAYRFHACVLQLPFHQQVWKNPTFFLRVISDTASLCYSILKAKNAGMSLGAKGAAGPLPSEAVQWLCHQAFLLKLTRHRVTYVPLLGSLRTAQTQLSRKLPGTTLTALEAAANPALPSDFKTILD
UniProt Q9BUR4: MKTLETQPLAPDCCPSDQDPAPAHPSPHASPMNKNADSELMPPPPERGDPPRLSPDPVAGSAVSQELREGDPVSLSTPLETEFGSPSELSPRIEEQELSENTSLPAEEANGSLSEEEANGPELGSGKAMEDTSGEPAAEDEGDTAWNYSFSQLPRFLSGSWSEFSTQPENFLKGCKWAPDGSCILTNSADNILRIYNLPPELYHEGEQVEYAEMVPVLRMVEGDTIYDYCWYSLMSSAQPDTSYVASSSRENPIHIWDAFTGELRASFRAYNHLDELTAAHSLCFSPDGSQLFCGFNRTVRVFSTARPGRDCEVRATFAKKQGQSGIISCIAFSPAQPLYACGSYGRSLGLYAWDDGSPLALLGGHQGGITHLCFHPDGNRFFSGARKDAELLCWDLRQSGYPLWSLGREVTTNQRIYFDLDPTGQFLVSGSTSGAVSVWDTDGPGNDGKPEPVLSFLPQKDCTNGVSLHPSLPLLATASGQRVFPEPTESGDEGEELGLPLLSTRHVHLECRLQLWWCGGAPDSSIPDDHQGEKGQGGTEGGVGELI
UniProt Q9Y265: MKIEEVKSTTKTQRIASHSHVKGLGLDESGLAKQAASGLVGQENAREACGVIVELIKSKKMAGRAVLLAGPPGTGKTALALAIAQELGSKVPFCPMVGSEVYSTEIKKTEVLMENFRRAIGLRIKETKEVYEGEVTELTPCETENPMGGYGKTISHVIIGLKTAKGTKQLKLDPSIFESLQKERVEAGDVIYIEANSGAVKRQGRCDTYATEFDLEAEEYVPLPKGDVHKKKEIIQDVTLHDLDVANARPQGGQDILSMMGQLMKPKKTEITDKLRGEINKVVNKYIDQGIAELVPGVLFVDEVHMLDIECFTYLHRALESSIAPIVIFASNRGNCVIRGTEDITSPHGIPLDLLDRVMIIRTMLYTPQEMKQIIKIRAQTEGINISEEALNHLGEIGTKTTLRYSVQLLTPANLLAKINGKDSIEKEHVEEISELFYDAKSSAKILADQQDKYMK

No constants are given. Whether binding was seen depends on the method and setting. Binding seen in cells or lysates may run through a third protein. Some entries that bind do so weakly or less than the wild type.

In the assay the target is telomerase reverse transcriptase (TERT) (human (endogenous in hLCSCs from Huh7)) (UniProt O14746). Nature of the assay: co-IP; co-immunoprecipitation with anti-TERT from rLV-Tet-on-CircMEG3-hLCSCs treated with DOX (0, 0.5, 1, 1.5, 2 ug/mL); IgG co-immunoprecipitation as negative control.
Regarding TCAB1 (from UniProt Q9BUR4 1-548), the binding result is on record as “binds”.

Regarding Pontin (from UniProt Q9Y265 1-456), the binding result is “binds”.

For the molecule B1, the binding result is recorded as “binds”.

Source of the values: publication PMC7779543.
